Source: publication PMC11950347
These are yes or no findings as the source states them, for the method shown. In cells and extracts the contact can be indirect. Some results given as binding are weak or reduced against the parent protein; the word gives no strength.

Sequences of proteins named here, by UniProt entry; tags and fusion partners are left off. Residues count along the entry.
UniProt P49747, residues 21-757: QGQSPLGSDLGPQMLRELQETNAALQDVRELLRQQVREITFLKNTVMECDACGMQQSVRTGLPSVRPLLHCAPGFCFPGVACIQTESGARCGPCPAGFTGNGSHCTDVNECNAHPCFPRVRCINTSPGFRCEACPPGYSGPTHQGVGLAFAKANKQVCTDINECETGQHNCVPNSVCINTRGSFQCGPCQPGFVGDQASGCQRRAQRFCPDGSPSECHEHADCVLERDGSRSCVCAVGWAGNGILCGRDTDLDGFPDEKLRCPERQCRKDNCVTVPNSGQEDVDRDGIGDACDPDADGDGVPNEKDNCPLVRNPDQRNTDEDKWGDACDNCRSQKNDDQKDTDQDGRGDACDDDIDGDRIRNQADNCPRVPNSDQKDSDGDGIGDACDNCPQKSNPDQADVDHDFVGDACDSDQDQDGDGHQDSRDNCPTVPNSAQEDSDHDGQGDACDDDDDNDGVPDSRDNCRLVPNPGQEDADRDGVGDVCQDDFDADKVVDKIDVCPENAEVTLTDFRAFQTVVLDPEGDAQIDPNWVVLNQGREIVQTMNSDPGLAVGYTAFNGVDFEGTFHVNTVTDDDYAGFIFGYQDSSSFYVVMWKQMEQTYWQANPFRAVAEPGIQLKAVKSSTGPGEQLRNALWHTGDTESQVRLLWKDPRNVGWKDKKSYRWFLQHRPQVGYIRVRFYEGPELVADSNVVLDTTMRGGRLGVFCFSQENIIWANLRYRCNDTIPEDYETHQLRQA
UniProt Q05707, residues 29-1796: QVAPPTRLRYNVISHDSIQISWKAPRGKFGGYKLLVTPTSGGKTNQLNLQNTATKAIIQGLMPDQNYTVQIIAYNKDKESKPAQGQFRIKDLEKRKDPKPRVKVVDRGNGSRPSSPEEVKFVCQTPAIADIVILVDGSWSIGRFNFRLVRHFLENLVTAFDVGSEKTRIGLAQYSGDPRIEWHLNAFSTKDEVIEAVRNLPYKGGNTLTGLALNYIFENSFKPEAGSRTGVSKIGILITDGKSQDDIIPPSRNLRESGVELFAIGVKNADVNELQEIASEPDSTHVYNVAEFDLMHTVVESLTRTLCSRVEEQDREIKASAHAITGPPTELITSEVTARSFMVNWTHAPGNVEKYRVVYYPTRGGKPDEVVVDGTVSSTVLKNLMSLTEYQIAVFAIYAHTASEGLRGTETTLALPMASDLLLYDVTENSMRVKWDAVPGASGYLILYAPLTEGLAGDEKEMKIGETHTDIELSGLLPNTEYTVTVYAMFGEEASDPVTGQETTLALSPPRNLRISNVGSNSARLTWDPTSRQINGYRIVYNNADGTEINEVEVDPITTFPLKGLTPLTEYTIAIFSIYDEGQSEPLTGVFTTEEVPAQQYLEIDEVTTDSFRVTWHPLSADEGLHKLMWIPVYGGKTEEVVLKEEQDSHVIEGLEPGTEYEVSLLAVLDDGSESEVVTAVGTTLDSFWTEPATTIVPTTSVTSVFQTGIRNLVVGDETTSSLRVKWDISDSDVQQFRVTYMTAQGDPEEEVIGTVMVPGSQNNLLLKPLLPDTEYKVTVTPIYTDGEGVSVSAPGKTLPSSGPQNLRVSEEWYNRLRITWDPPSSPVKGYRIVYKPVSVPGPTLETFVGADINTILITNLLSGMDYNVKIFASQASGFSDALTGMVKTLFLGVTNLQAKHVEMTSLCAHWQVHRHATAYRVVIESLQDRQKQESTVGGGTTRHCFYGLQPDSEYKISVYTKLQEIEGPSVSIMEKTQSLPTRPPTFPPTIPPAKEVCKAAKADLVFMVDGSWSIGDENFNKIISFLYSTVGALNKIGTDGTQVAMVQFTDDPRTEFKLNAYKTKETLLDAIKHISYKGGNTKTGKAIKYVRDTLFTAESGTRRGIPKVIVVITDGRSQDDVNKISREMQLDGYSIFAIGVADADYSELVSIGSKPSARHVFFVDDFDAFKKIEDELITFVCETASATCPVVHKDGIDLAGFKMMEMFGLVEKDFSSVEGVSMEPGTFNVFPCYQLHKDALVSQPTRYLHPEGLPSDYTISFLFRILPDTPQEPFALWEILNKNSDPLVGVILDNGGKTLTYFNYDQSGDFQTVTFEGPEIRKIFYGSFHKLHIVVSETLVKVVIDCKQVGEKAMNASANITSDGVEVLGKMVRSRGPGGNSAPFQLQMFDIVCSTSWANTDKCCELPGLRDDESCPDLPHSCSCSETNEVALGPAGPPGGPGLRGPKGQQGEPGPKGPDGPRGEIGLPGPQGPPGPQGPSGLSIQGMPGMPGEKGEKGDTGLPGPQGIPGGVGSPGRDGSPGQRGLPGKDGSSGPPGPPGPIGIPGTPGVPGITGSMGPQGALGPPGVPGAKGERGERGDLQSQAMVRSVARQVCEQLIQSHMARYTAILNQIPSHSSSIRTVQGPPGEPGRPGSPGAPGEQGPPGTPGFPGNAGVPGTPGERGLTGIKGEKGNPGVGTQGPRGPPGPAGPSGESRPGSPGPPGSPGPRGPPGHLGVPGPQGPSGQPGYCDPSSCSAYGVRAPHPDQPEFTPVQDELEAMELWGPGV

Molecular target: cartilage oligomeric matrix protein (human (endogenous in hBMFs)) (UniProt P49747)
Experiment: co-IP; hBMFs treated with arecoline (10 μg/mL) or PBS and exocytosis inhibitor EXO1 for 24 h; NP40 whole cell lysate, 2 mg protein; magnetic beads coupled with target antibodies, IgG-coupled beads as control; 4 °C overnight; washed with TBST three times; which antibody was on the beads is not …

- binding: binds
Substance: collagen XIV (from UniProt Q05707 29-1796)
